No constants are given. Whether binding was seen depends on the method and setting. In cells and extracts the contact can be indirect. Some results given as binding are weak or reduced against the parent protein; the word gives no strength. Sequences can lack the tags named with a protein.
Target: T1, ULK1 (UNC-51-like kinase 1), HA-tagged (UniProt O75385)
T1 sequence: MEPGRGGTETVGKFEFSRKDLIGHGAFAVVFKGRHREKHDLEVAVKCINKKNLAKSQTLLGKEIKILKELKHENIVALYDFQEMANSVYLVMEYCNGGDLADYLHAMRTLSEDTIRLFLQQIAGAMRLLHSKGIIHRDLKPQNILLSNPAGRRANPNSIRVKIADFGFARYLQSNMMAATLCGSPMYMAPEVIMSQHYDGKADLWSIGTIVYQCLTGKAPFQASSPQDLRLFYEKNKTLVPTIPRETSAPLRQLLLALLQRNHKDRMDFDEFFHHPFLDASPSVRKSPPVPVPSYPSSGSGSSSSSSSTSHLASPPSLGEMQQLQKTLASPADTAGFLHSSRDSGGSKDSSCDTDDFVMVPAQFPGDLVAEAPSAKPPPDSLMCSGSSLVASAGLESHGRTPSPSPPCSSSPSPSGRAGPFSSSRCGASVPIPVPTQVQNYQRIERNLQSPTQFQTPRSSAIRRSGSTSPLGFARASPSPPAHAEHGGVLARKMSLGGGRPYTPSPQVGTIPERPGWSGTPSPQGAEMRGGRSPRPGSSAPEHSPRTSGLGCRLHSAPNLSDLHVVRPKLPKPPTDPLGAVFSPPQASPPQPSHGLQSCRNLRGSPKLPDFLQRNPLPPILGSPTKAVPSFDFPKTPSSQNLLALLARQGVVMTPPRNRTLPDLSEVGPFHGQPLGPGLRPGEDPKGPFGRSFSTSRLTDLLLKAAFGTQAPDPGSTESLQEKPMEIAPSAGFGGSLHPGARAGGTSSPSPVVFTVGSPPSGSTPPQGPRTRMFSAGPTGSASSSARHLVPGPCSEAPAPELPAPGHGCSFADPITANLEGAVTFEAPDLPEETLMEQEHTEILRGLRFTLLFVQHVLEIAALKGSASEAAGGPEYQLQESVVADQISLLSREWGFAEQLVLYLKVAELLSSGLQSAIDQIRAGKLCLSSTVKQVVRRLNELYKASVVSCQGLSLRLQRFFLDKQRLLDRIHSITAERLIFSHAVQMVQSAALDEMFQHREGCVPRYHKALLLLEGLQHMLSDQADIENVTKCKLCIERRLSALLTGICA
Experiment: co-IP; HeLa cells transfected with ULK1-HA and NDR2-Flag plasmids, 48 hours; lysis buffer with 1 mM PMSF, 1 mM DTT and protease inhibitor cocktail; immunoprecipitation with Flag-tag and HA-tag mouse monoclonal antibodies overnight at 4°C, protein A/G beads 3 hours at 4°C, 5 washes with PBS; Western blot

Sequences of proteins named here, by UniProt entry; tags and fusion partners are left off.
UniProt Q9Y2H1: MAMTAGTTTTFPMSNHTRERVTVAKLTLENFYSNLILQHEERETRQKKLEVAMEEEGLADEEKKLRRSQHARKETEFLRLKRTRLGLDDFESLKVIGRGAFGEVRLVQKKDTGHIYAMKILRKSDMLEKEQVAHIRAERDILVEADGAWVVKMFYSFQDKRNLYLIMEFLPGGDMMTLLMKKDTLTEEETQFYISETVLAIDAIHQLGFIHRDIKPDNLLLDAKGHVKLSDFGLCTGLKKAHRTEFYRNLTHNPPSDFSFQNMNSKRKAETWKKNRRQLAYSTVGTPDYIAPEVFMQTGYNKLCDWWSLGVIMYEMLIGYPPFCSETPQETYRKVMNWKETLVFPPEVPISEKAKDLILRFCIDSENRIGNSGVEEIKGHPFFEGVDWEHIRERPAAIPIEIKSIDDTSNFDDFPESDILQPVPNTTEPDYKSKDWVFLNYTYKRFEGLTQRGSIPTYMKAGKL

- binding: binds
Substance: NDR2 (nuclear Dbf2-related kinase 2), Flag-tagged (from UniProt Q9Y2H1 1-464) (enzyme)
